# “And” between values parts separate entries of the source, which are not always exact repeats. Equal values may be shown once. This continues a long series; more values of the same kind are listed elsewhere.
# Tested on: RPE1 cells
# Test: Cell growth assay (IncuCyte confluence over 72 h)
# Type: cell-based
# Protocol: Cell growth assay: Cell confluence (phase) from RPE1 (hTERT RPE-1, ATCC CLR_4000) or U2OS (ATCC, HTB-96) cell lines were monitored over time with the IncuCyte S3 (Sartiorius, Germany) in 384-well plates in 50 ul DMEM media, supplemented with 10% Fetal Bovine Serum (FBS) 1% penicillin/Streptomycin and incubated 24 h before treatment. Experiment was performed as described in Cano-Franco et al.. 50 μl of media containing either 2× final concentration of indicated compounds in or control compounds (final conc.: 0.1% DMSO, 250 nM Torin1, 200 ng/mL Bafilomycin) were added and images were taken every two hours over 72 h. Cell confluence is represented as % of area covered by cells. Each data point represents the average ratio or confluence obtained from three individual wells of the plate.
structure (smiles),measurement,setting,value
O=c1cc(-c2ccccc2)c2c(O)cc(O)cc2o1 [compound 2],RPE1 cell growth,"3 uM, 20 h, listed as AN2",52 and 35 and 38
same,RPE1 cell growth,"3 uM, 22 h, listed as AN2",55 and 39
same,RPE1 cell growth,"3 uM, 24 h, listed as AN2",61 and 43 and 41
same,RPE1 cell growth,"3 uM, 26 h, listed as AN2",64 and 44 and 45
same,RPE1 cell growth,"3 uM, 28 h, listed as AN2",69 and 49 and 47
same,RPE1 cell growth,"3 uM, 30 h, listed as AN2",75 and 52 and 50
same,RPE1 cell growth,"3 uM, 32 h, listed as AN2",78 and 56 and 54
same,RPE1 cell growth,"3 uM, 34 h, listed as AN2",82 and 59 and 60
same,RPE1 cell growth,"3 uM, 36 h, listed as AN2",85 and 64 and 63
same,RPE1 cell growth,"3 uM, 38 h, listed as AN2",87 and 68 and 66
same,RPE1 cell growth,"3 uM, 40 h, listed as AN2",91 and 72 and 71
same,RPE1 cell growth,"3 uM, 42 h, listed as AN2",93 and 76
same,RPE1 cell growth,"3 uM, 44 h, listed as AN2",96 and 81 and 79
same,RPE1 cell growth,"3 uM, 46 h, listed as AN2",97 and 86 and 83
same,RPE1 cell growth,"3 uM, 48 h, listed as AN2",99 and 90 and 88
same,RPE1 cell growth,"3 uM, 50 h, listed as AN2",99 and 92
same,RPE1 cell growth,"3 uM, 52 h, listed as AN2",100 and 96 and 94
same,RPE1 cell growth,"3 uM, 54 h, listed as AN2",100 and 97
same,RPE1 cell growth,"3 uM, 56 h, listed as AN2",100 and 99 and 98
same,RPE1 cell growth,"3 uM, 58 h, listed as AN2",100 and 99
same,RPE1 cell growth,"3 uM, 60 h",100
same,RPE1 cell growth,"3 uM, 62 h",100
same,RPE1 cell growth,"3 uM, 64 h",100
same,RPE1 cell growth,"3 uM, 66 h",100
same,RPE1 cell growth,"3 uM, 68 h",100
same,RPE1 cell growth,"3 uM, 70 h",100
same,RPE1 cell growth,"3 uM, 72 h",100
same,RPE1 cell growth,"5 uM, 12 h, listed as AN2",42 and 27 and 35
same,RPE1 cell growth,"5 uM, 14 h, listed as AN2",46 and 30 and 38
same,RPE1 cell growth,"5 uM, 16 h, listed as AN2",48 and 32 and 40
same,RPE1 cell growth,"5 uM, 18 h, listed as AN2",50 and 33 and 42
same,RPE1 cell growth,"5 uM, 20 h, listed as AN2",50 and 36 and 44
same,RPE1 cell growth,"5 uM, 22 h, listed as AN2",53 and 41 and 46
same,RPE1 cell growth,"5 uM, 24 h, listed as AN2",61 and 42 and 47
same,RPE1 cell growth,"5 uM, 26 h, listed as AN2",65 and 44 and 51
same,RPE1 cell growth,"5 uM, 28 h, listed as AN2",69 and 48 and 53
same,RPE1 cell growth,"5 uM, 30 h, listed as AN2",74 and 54 and 57
same,RPE1 cell growth,"5 uM, 32 h, listed as AN2",77 and 57 and 60
same,RPE1 cell growth,"5 uM, 34 h, listed as AN2",83 and 60 and 64
same,RPE1 cell growth,"5 uM, 36 h, listed as AN2",85 and 66 and 69
same,RPE1 cell growth,"5 uM, 38 h, listed as AN2",87 and 71 and 73
same,RPE1 cell growth,"5 uM, 40 h, listed as AN2",91 and 75 and 76
same,RPE1 cell growth,"5 uM, 42 h, listed as AN2",93 and 78 and 81
same,RPE1 cell growth,"5 uM, 44 h, listed as AN2",96 and 82 and 84
same,RPE1 cell growth,"5 uM, 46 h, listed as AN2",97 and 86 and 88
same,RPE1 cell growth,"5 uM, 48 h, listed as AN2",99 and 90 and 91
same,RPE1 cell growth,"5 uM, 50 h, listed as AN2",99 and 93 and 94
same,RPE1 cell growth,"5 uM, 52 h, listed as AN2",99 and 96
same,RPE1 cell growth,"5 uM, 54 h, listed as AN2",100 and 98 and 97
same,RPE1 cell growth,"5 uM, 56 h, listed as AN2",100 and 99 and 98
same,RPE1 cell growth,"5 uM, 58 h, listed as AN2",100 and 99
same,RPE1 cell growth,"5 uM, 60 h, listed as AN2",100 and 99
same,RPE1 cell growth,"5 uM, 62 h",100
same,RPE1 cell growth,"5 uM, 64 h",100
same,RPE1 cell growth,"5 uM, 66 h",100
same,RPE1 cell growth,"5 uM, 68 h",100
same,RPE1 cell growth,"5 uM, 70 h",100
same,RPE1 cell growth,"5 uM, 72 h",100
same,RPE1 cell growth,"10 uM, 12 h, listed as AN2",45 and 31
same,RPE1 cell growth,"10 uM, 14 h, listed as AN2",48 and 32 and 33
same,RPE1 cell growth,"10 uM, 16 h, listed as AN2",51 and 34 and 35
same,RPE1 cell growth,"10 uM, 18 h, listed as AN2",52 and 35 and 37
same,RPE1 cell growth,"10 uM, 20 h, listed as AN2",52 and 38 and 40
same,RPE1 cell growth,"10 uM, 22 h, listed as AN2",55 and 43 and 42
same,RPE1 cell growth,"10 uM, 24 h, listed as AN2",61 and 44 and 43
same,RPE1 cell growth,"10 uM, 26 h, listed as AN2",65 and 45 and 47
same,RPE1 cell growth,"10 uM, 28 h, listed as AN2",70 and 48 and 49
same,RPE1 cell growth,"10 uM, 30 h, listed as AN2",75 and 53 and 54
same,RPE1 cell growth,"10 uM, 32 h, listed as AN2",80 and 56 and 58
same,RPE1 cell growth,"10 uM, 34 h, listed as AN2",84 and 57 and 61
same,RPE1 cell growth,"10 uM, 36 h, listed as AN2",87 and 63 and 65
same,RPE1 cell growth,"10 uM, 38 h, listed as AN2",89 and 66 and 68
same,RPE1 cell growth,"10 uM, 40 h, listed as AN2",91 and 72 and 73
same,RPE1 cell growth,"10 uM, 42 h, listed as AN2",94 and 75 and 78
same,RPE1 cell growth,"10 uM, 44 h, listed as AN2",96 and 79 and 82
same,RPE1 cell growth,"10 uM, 46 h, listed as AN2",98 and 83 and 85
same,RPE1 cell growth,"10 uM, 48 h, listed as AN2",99 and 88 and 89
same,RPE1 cell growth,"10 uM, 50 h, listed as AN2",100 and 91 and 92
same,RPE1 cell growth,"10 uM, 52 h, listed as AN2",100 and 94
same,RPE1 cell growth,"10 uM, 54 h, listed as AN2",100 and 95 and 96
same,RPE1 cell growth,"10 uM, 56 h, listed as AN2",100 and 97 and 98
same,RPE1 cell growth,"10 uM, 58 h, listed as AN2",100 and 99
same,RPE1 cell growth,"10 uM, 60 h, listed as AN2",100 and 99
same,RPE1 cell growth,"10 uM, 62 h",100
same,RPE1 cell growth,"10 uM, 64 h",100
same,RPE1 cell growth,"10 uM, 66 h",100
same,RPE1 cell growth,"10 uM, 68 h",100
same,RPE1 cell growth,"10 uM, 70 h",100
same,RPE1 cell growth,"10 uM, 72 h",100
